PubChem BioAssay AID192 (DTP/NCI, 2004)
The list shows only some results of the screen, not a fair sample: it is rich in T/C values a quarter to a half above the control, in often repeated tests (any T/C) and in doses without a T/C. Other doses and runs of a compound stand elsewhere. T/C: endpoint of the treated group in % of that of the vehicle group. Some entries give survivors of the animals treated and no T/C: the source files T/C as zero there, which appears to mark a toxic dose or a test without result, not a measured value. Some survivor counts are full or nearly so, which does not show that the dose was tolerated: survival well below the control is almost never listed, so the zero probably covers shortened survival too. Counts of survivors are from the toxicity check (mostly the fifth day) where no day follows; animals may have died later. Schedules are NCI's codes, read here as Q, the interval in days (D) or hours (H), X, the number of doses. Some entries were tested several times; the results are listed from low to high. Where survival is the endpoint, the PubChem record calls one and a half times the control and up active, and a quarter to a half above the control has no call in these data; cut-offs in other NCI protocols can differ. Some T/C values are followed by the survivors on the day toxicity was checked, most often the fifth; where none is given, no animal had died by that day.

Tested on: BDF1 mice, B16 melanoma ip, median survival T/C
Test: NCI In Vivo Anticancer Drug Screen. Data for tumor model B16 Melanoma (intraperitoneal) in B6D2F1 (BDF1) mice
Details: T/C endpoint: median survival time, higher T/C = longer survival
Summary of the method: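 Vehicle-treated animals serve as the reference (C); treated animals (T) are scored for survival or tumor size after tumor transplantation.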

[1] = dose: 12.0 mg/kg/injection, schedule: Q01DX009 (ip), vehicle: alcohol
[2] = dose: 12.0 mg/kg/injection, schedule: Q01DX009 (ip), vehicle: saline + alcohol

O=NN(CCCl)C(=O)NCCCl
T/C (dose: 1.5 mg/kg/injection, schedule: Q01DX009 (ip), vehicle: saline + alcohol): 102, 116, 135, 138 % of control | T/C (dose: 2.5 mg/kg/injection, schedule: Q01DX009 (ip), vehicle: other): 127 % of control | T/C (dose: 2.5 mg/kg/injection, schedule: Q04DX003 (ip), vehicle: saline + alcohol): 128 % of control | T/C (dose: 3.0 mg/kg/injection, schedule: Q01DX009 (ip), vehicle: alcohol): 125 and 126 % of control | T/C (dose: 3.0 mg/kg/injection, schedule: Q01DX009 (ip), vehicle: saline + alcohol): 117, 127, 140, 152 % of control | T/C (dose: 3.75 mg/kg/injection, schedule: Q01DX009 (ip), vehicle: saline): 137 % of control | T/C (dose: 4.0 mg/kg/injection, schedule: Q01DX009 (ip), vehicle: saline + alcohol): 138 and 141 % of control | T/C (dose: 4.0 mg/kg/injection, schedule: Q01DX009 (ip), vehicle: saline with Tween-80): 127 and 143 % of control | T/C (dose: 4.0 mg/kg/injection, schedule: Q04DX003 (ip), vehicle: saline + alcohol): 130 % of control | T/C (dose: 5.0 mg/kg/injection, schedule: Q04DX003 (ip), vehicle: saline + alcohol): 132 % of control | T/C (dose: 6.0 mg/kg/injection, schedule: Q01DX009 (ip), vehicle: saline + alcohol): 137, 178, 185, 256 % of control | T/C (dose: 10.0 mg/kg/injection, schedule: Q01DX001 (ip), vehicle: saline + alcohol, evaluated on day 5): 116 and 133 % of control | T/C (dose: 10.0 mg/kg/injection, schedule: Q01DX001 (ip), vehicle: saline + alcohol, evaluated on day 6): 109 % of control | T/C (dose: 10.0 mg/kg/injection, schedule: Q01DX001 (ip), vehicle: saline + alcohol, evaluated on day 45): 131 % of control | T/C (dose: 10.0 mg/kg/injection, schedule: Q01DX001 (ip), vehicle: saline + alcohol, evaluated on day 60): 132 % of control | survivor count (dose: 10.0 mg/kg/injection, schedule: Q01DX009 (ip), vehicle: other): 5 of 5 | T/C (dose: 10.0 mg/kg/injection, schedule: Q04DX003 (ip), vehicle: saline + alcohol): 141 % of control | T/C [1]: 137 % of control | survivor count [1]: 10 of 10 | survivor count (dose: 12.0 mg/kg/injection, schedule: Q01DX009 (ip), vehicle: other): 9 of 10 | T/C [2]: 200 and 278 % of control | survivor count [2]: 10 of 10 | T/C (dose: 15.0 mg/kg/injection, schedule: Q01DX001 (ip), vehicle: saline): 145 % of control | survivor count (dose: 15.0 mg/kg/injection, schedule: Q01DX009 (ip), vehicle: saline): 6 of 6 | T/C (dose: 16.0 mg/kg/injection, schedule: Q01DX001 (ip), vehicle: saline + alcohol): 143 % of control | survivor count (dose: 16.0 mg/kg/injection, schedule: Q01DX009 (ip), vehicle: saline with Tween-80): 10 of 10 | T/C (dose: 20.0 mg/kg/injection, schedule: Q01DX001 (ip), vehicle: saline + alcohol, evaluated on day 5): 129 and 144 % of control | T/C (dose: 20.0 mg/kg/injection, schedule: Q01DX001 (ip), vehicle: saline + alcohol, evaluated on day 6): 127 % of control | T/C (dose: 20.0 mg/kg/injection, schedule: Q01DX001 (ip), vehicle: saline + alcohol, evaluated on day 13): 132 and 145 % of control | T/C (dose: 20.0 mg/kg/injection, schedule: Q01DX001 (ip), vehicle: saline + alcohol, evaluated on day 45): 143 % of control | T/C (dose: 20.0 mg/kg/injection, schedule: Q01DX001 (ip), vehicle: saline + alcohol, evaluated on day 60): 154 % of control | survivor count (dose: 20.0 mg/kg/injection, schedule: Q01DX009 (ip), vehicle: other): 5 of 5 | survivor count (dose: 24.0 mg/kg/injection, schedule: Q01DX009 (ip), vehicle: alcohol): 10 of 10 | survivor count (dose: 24.0 mg/kg/injection, schedule: Q01DX009 (ip), vehicle: other): 8 of 10 and 10 of 10 | survivor count (dose: 24.0 mg/kg/injection, schedule: Q01DX009 (ip), vehicle: saline + alcohol): 10 of 10 | survivor count (dose: 25.0 mg/kg/injection, schedule: Q01DX009 (ip), vehicle: alcohol): 10 of 10 | survivor count (dose: 30.0 mg/kg/injection, schedule: Q01DX009 (ip), vehicle: saline): 6 of 6 | T/C (dose: 32.0 mg/kg/injection, schedule: Q01DX001 (ip), vehicle: saline + alcohol): 134 % of control | survivor count (dose: 32.0 mg/kg/injection, schedule: Q01DX009 (ip), vehicle: saline with Tween-80): 10 of 10 | T/C (dose: 40.0 mg/kg/injection, schedule: Q01DX001 (ip), vehicle: saline + alcohol, evaluated on day 5): 159 and 174 % of control | T/C (dose: 40.0 mg/kg/injection, schedule: Q01DX001 (ip), vehicle: saline + alcohol, evaluated on day 6): 150 % of control | T/C (dose: 40.0 mg/kg/injection, schedule: Q01DX001 (ip), vehicle: saline + alcohol, evaluated on day 13): 124 and 155 % of control | T/C (dose: 40.0 mg/kg/injection, schedule: Q01DX001 (ip), vehicle: saline + alcohol, evaluated on day 45): 165 % of control | T/C (dose: 40.0 mg/kg/injection, schedule: Q01DX001 (ip), vehicle: saline + alcohol, evaluated on day 60): 272 % of control | survivor count (dose: 60.0 mg/kg/injection, schedule: Q01DX009 (ip), vehicle: saline): 2 of 6 | T/C (dose: 80.0 mg/kg/injection, schedule: Q01DX001 (ip), vehicle: saline + alcohol, evaluated on day 5): 32 % of control | T/C (dose: 80.0 mg/kg/injection, schedule: Q01DX001 (ip), vehicle: saline + alcohol, evaluated on day 13): 46 and 128 % of control | survivor count (dose: 80.0 mg/kg/injection, schedule: Q01DX001 (ip), vehicle: saline + alcohol): 10 of 10 | survivor count (dose: 80.0 mg/kg/injection, schedule: Q01DX001 (ip), vehicle: saline): 10 of 10

O=P(N1CCOCC1)(N1CC1)N1CC1
survivor count (dose: 25.0 mg/kg/injection, schedule: Q01DX009 (ip), vehicle: saline): 10 of 10 | survivor count (dose: 50.0 mg/kg/injection, schedule: Q01DX009 (ip), vehicle: saline): 8 of 10

COc1cc(Cl)c(CC(=O)c2c[nH]c3ccccc23)cc1OC
survivor count (dose: 25.0 mg/kg/injection, schedule: Q01DX009 (ip), vehicle: saline with Tween-80): 10 of 10 | survivor count (dose: 50.0 mg/kg/injection, schedule: Q01DX009 (ip), vehicle: saline with Tween-80): 10 of 10

CCO/C=C1\SC(=S)N(c2ccco2)C1=O
survivor count (dose: 200.0 mg/kg/injection, schedule: Q01DX009 (ip), vehicle: saline): 4 of 10

COC1CCCCC1I (configuration not stated)
survivor count (dose: 200.0 mg/kg/injection, schedule: Q01DX009 (ip), vehicle: alcohol): 9 of 10 | survivor count (dose: 300.0 mg/kg/injection, schedule: Q04DX003 (ip), vehicle: alcohol): 7 of 10

C=C1C(C)C2C(Cc3ccccc3)NC(=O)C23C(OC(C)=O)C=CC(C)(O)C(=O)C(C)C/C=C/C3C1O (configuration not stated)
T/C (dose: 0.31 mg/kg/injection, schedule: Q01DX009 (ip), vehicle: Klucel (hydroxypropylcellulose) (HPC)): 143 % of control | T/C (dose: 0.62 mg/kg/injection, schedule: Q01DX009 (ip), vehicle: Klucel (hydroxypropylcellulose) (HPC)): 129 % of control | survivor count (dose: 10.0 mg/kg/injection, schedule: Q01DX009 (ip), vehicle: Klucel (hydroxypropylcellulose) (HPC)): 2 of 10

O=C(Oc1cccc(OC(=O)c2ccc(Cl)cc2)c1)c1ccc(Cl)cc1
survivor count (dose: 100.0 mg/kg/injection, schedule: Q01DX009 (ip), vehicle: Klucel (hydroxypropylcellulose) (HPC)): 9 of 9 | survivor count (dose: 200.0 mg/kg/injection, schedule: Q01DX009 (ip), vehicle: Klucel (hydroxypropylcellulose) (HPC)): 10 of 10 | survivor count (dose: 400.0 mg/kg/injection, schedule: Q01DX009 (ip), vehicle: Klucel (hydroxypropylcellulose) (HPC)): 10 of 10

c1ccc2c(c1)C1=NCCN1c1ccccc1-2
survivor count (dose: 40.0 mg/kg/injection, schedule: Q01DX009 (ip), vehicle: saline with Tween-80): 9 of 10 | survivor count (dose: 60.0 mg/kg/injection, schedule: Q01DX009 (ip), vehicle: saline with Tween-80): 7 of 10

COC(CCC(C)C1OC23CC(OC(=O)CC(C(C)O)OC(=O)CC(O)(O2)C(C)CC3(C)C)C1C)c1cccc(O)c1 (configuration not stated)
T/C (dose: 25.0 micrograms/kg/injection, schedule: Q01DX009 (ip), vehicle: other): 146 % of control | T/C (dose: 50.0 micrograms/kg/injection, schedule: Q01DX009 (ip), vehicle: other): 142 % of control | T/C (dose: 100.0 micrograms/kg/injection, schedule: Q01DX009 (ip), vehicle: other): 142 % of control [9 of 10 alive]
